Results are given in words; binding and its absence hold for the method and conditions named. Some entries that bind do so weakly or less than the wild type.
Legend:
[1] = biological target: CD7 (human) (UniProt P09564); assay: flow cytometry; soluble scFv on CD7+ MOLT-4 and CD7- OP-1 cells, detected with goat anti-mouse F(ab')2
[2] = biological target: CD7 (human) (UniProt P09564); assay: flow cytometry; supernatant of scFv-transduced Jurkat cells on MOLT-4 (CD7+) and OP-1 (CD7-) cells

Protein sequences, listed by entry. Tags and fused reporters are not part of them. Residues count along the entry.
UniProt P09564, residues 26-240: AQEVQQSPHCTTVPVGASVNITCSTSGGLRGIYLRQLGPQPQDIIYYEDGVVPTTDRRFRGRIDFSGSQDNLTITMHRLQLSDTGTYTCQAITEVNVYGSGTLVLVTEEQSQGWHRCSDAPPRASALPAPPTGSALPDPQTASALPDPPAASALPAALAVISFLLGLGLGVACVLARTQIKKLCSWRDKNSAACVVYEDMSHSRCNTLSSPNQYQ

B1: soluble anti-CD7 scFv (scFv of the anti-CD7 monoclonal antibody TH69) (scFv)
scFv: AAYKDIQMTQTTSSLSASLGDRVTISCSASQGISNYLNWYQQKPDGTVKLLIYYTSSLHSGVPSRFSGSGSGTDYSLTISNLEPEDIATYYCQQYSKLPYTFGGGTKLEIKRGGGGSGGGGSGGGGSGGGGSEVQLVESGGGLVKPGGSLKLSCAASGLTFSSYAMSWVRQTPEKRLEWVASISSGGFTYYPDSVKGRFTISRDNARNILYLQMSSLRSEDTAMYYCARDEVRGYLDVWGAGTTVTVSS
In the case of B1, the binding [1] is reported as “binds” and the binding [2] is reported as “binds”.
